Part of at least one peptide drawing is inferred or uncertain, most often the ends. Where a SMILES comes first, the peptide text is derived from it. [ ]: non-standard residue; d: D form. d2Nal = N[C@H](Cc1ccc2ccccc2c1)C(=O)O
System: serum growth hormone (GH)
Test: In vivo GH release in pentobarbital anesthetized rats, i.v. injection
Parameters: species or system rat
Details: Table 5, sacrificed 10 min after injection, N = 6
Protocol: Immature female Sprague-Dawley rats were obtained from the Charles River Laboratories (Wilmington, Mass.). After arrival they were housed at 25° C. with a 14:10 hour light:dark cycle. Water and Purina rat chow were available ad libitum. Pups were kept with their mothers until 21 days of age.
Twenty-six day old rats, six rats per treatment group, were anesthetized interperitoneally with 50 mg/kg of pentobarbital 20 minutes prior to i.v. treatment with peptide. Normal saline with 0.1% gelatin was the vehicle for intravenous (i.v.) injections of the peptides. The anesthetized rats, weighing 55-65 grams, were injected i.v. with the quantity of growth hormone releasing compounds indicated in Table 3. Injection was made as a 0.1 mL solution into the jugular vein.
All animals were sacrificed by guillotine 10 minutes after the final test injection (see Table 3). Trunk blood for the determination of blood GH levels was collected following decapitation. After allowing the blood to clot, it was centrifuged and the serum was separated from the clot. Serum was kept frozen until the day of sampling for radioimmunoassay (RIA) determination of growth hormone levels according to the following procedure, as developed by the National Institute of Arthritis, Diabetes and Digestive and Kidney Diseases (NIADDK).
Reagents are generally added to the RIA analysis tubes at a single sitting, at refrigerator temperature (about 4° C.) in the following sequence:
(b) "cold" (i.e., non-radioactive) standard or unknown serum sample to be analyzed,
(c) radio-iodinated growth hormone antigen, and
(d) growth hormone antiserum.
Reagent addition is generally carried out so that there is achieved a final RIA tube dilution of about 1:30,000 (antiserum to total liquid volume; vol:vol).
The mixed reagents are then typically incubated at room temperature (about 25° C.) for about 24 hours prior to addition of a second antibody (e.g., goat or rabbit anti-monkey gamma globulin serum) which binds to and causes precipitation of the complexed growth hormone antiserum. Precipitated contents of the RIA tubes are then analyzed for the number of counts in a specified period of time in a gamma scintillation counter. A standard curve is prepared by plotting number of radioactive counts versus growth hormone (GH) level. GH levels of unknowns are then determined by reference to the standard curve.
Serum GH was measured by RIA with reagents provided by the National Hormone and Pituitary Program.
Serum levels in Table 3 are recorded in ng/mL in terms of the rat GH standard of 0.61 International Units/mg (IU/mg). Data is recorded as the mean +/- standard error of the mean (SEM). Statistical analysis was performed with Student's t-test. In Table 3 the results shown are the average of studies with six rats.
The procedure of Example 2 was repeated.

C[C@H](NC(=O)[C@@H](Cc1ccc2ccccc2c1)NC(=O)[C@@H](C)NC(=O)[C@@H](N)Cc1ccc(O)cc1)C(=O)N[C@@H](Cc1c[nH]c2ccccc12)C(=O)N[C@H](Cc1ccccc1)C(=O)N[C@@H](CCCCN)C(N)=O [Tyr-DAla-DβNal-Ala-Trp-DPhe-Lys-NH2] (H-Y[dA][d2Nal]AW[dF]K-NH2)
GH Released Serum GH (total dose 0.03 μg i.v.): 164 ng/mL
GH Released Serum GH (total dose 0.10 μg i.v.): 247 ng/mL
GH Released Serum GH (total dose 0.30 μg i.v.): 196 ng/mL
GH Released Serum GH (total dose 1.00 μg i.v.): 329 ng/mL
GH Released Serum GH (total dose 3.00 μg i.v.): 878 ng/mL

From patent US5776901A, “Polypeptide analogues having growth hormone releasing activity” (Administrators of the Tulane Educational Fund, priority 1992, dated 1998)
